# The other results are listed elsewhere or left out. Shown are side measurements of this screen, not its main read-out; they come without a call. The list favours compounds with an active or inconclusive main result. Potencies come from curve fits of mixed quality, noted in brackets.
# Assay: qHTS Assay for Lipid Storage Modulators in Drosophila S3 Cells;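 as to cell number change: cells counted by Cell Tracker Red CMTPX staining in the red channel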
# Conditions: BODIPY lipid droplet fluorescence, 18-24 h; for cell number change: measured here: cell count max response, cells fed with added oleic acid
# Outline: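 Drosophila S3 cells got compounds at several concentrations plus oleic acid (400 uM solution). Laser-scanning cytometry with 488 nm excitation read lipid droplets at 500-530 nm and cells at 575-640 nm. Percent activity was relative to 20 uM Triacsin C.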
# [1] = measured here: cell number channel AC50, cells fed with added oleic acid
# [2] = measured here: lipid fluorescence (Fed channel) AC50, cells fed with added oleic acid
Structure (SMILES),cell number change [%],AC50 [1],AC50 [2]
Cc1ccccc1N1CCN(C(=S)c2ccc(-c3cccc([N+](=O)[O-])c3)o2)CC1,-44.3,"29.1 µM [falling, single point]","18.4 µM [falling, partial curve]"
O=C(CSc1ncn[nH]1)c1ccccc1,-34.6,"4.61 µM [falling, full curve]","1.3 µM [falling, full curve]"
CC(=O)c1ccccc1NC(=O)c1cc(S(=O)(=O)N2CCOCC2)ccc1N1CCCC1,14.7,–,"14.6 µM [rising, partial curve]"
Oc1ccccc1CN1CCN(C(c2ccccc2)c2ccccc2)CC1,27.2,–,"20.6 µM [rising, partial curve]"
CC(=O)COc1ccc2c3c(c(=O)oc2c1C)CCCCC3,-7.73,–,"29.1 µM [rising, single point]"
O=C(NCCC1CCCCN1S(=O)(=O)c1ccccc1)C(=O)NC1CC1 (centres undefined),-25.1,–,"0.0651 µM [falling, full curve, poor fit]"
COc1ccccc1C(=O)N/N=C(\C)CC(=O)Nc1ccc2c(c1)OCCO2,–,–,"35.5 µM [falling, single point]"
Cc1ccc(C)c(N2CCN(C(c3ccncc3)c3nnnn3Cc3ccccc3)CC2)c1 (centres undefined),23.5,–,"29.1 µM [falling, single point]"
O=C(O)c1ccccc1NS(=O)(=O)c1cccc(C(F)(F)F)c1,-2.51,–,"0.651 µM [falling, single point]"
CCOc1ccc(OCCCC(=O)N(C)CC(=O)Nc2ccc(N3CCOCC3)cc2)cc1,2.01,–,–
Cc1ccc(S(=O)(=O)NCCCC(=O)N2CCC(C)CC2)cc1,–,–,"9.2 µM [falling, partial curve]"
O=C(CSc1ccc(S(=O)(=O)N2CCOCC2)cn1)Nc1ccc(OC(F)F)cc1,33.4,"29.1 µM [rising, single point]","4.61 µM [rising, partial curve]"
CCCCn1c(CCn2nc(C)c(Br)c2C)n[nH]c1=S,41.9,"2.06 µM [rising, partial curve]","0.461 µM [rising, single point]"
C#CCNc1c2c(nc3ncnn13)CC(C)CC2 (centres undefined),-8.42,–,"4.61 µM [rising, partial curve, poor fit]"
CC(=O)Nc1ccc(-c2csc(Nc3cc(C)ccn3)n2)cc1,-38.1,"29.1 µM [falling, partial curve, poor fit]","32.6 µM [falling, partial curve]"
Cc1[nH]c(=O)[nH]c(=O)c1N1CCOCC1,-23,–,"0.164 µM [falling, full curve]"
CCc1cccc(NC(=O)C2CCCN(c3ncnc4c3nc3n4CCCCC3)C2)c1 (centres undefined),7.63,–,–
O=C(Nc1ccccc1C(=O)NCCN1CCOCC1)c1ccco1,–,"6.51 µM [rising, single point]",–

Structure (SMILES),cell number change [%],AC50 [1],AC50 [2]
COCCn1c(=NC(=O)c2ccc(S(=O)(=O)N3CCCc4ccccc43)cc2)sc2cc(S(C)(=O)=O)ccc21,4.74,–,"3.26 µM [rising, single point]"
Cc1cc(C(=O)Nc2ccc(Br)cc2)c2ccccc2n1,-2.19,–,"0.116 µM [rising, full curve, poor fit]"
C=CCn1c(O)c(C2=c3ccccc3=NC2=O)sc1=Nc1ccc(O)cc1,-69,"25.9 µM [falling, partial curve]","18.4 µM [falling, single point]"
CCC(=NCCc1c(C)[nH]c2ccc(OC(F)(F)F)cc12)C1=C(O)CC(c2ccccc2)CC1=O (centres undefined),-28.5,–,"18.4 µM [falling, single point]"
CC(=O)N1Cc2[nH]c3ccccc3c2CC1C(=O)O (centres undefined),1.29,–,"0.00461 µM [falling, full curve, poor fit]"
CC1C(=O)N2CCCc3cc(NC(=O)C(=O)NCCc4ccccc4)cc1c32 (centres undefined),-10.8,"7.31 µM [falling, single point]","0.731 µM [falling, partial curve, poor fit]"
O=C(Nc1ccc([N+](=O)[O-])cn1)C1CC1,-3.48,–,–
Clc1ccc(C2Nc3cccc4cccc(c34)N2)cc1Cl,-17.9,–,"6.51 µM [rising, single point]"
COc1ccc(Nc2nc3ccc(C)cc3n3cnnc23)cc1Cl,127,"29.1 µM [rising, single point]","23.1 µM [rising, single point]"
O=C1ON=C(c2ccc(Cl)cc2)/C1=C/c1ccc(O)cc1,-29.5,–,"29.1 µM [falling, partial curve, poor fit]"
Cc1cccc(NC(=O)CSc2nnc(CNC(=O)c3ccco3)o2)c1C,-2.83,"0.259 µM [rising, partial curve, poor fit]","0.58 µM [falling, single point]"
Cc1csc(NC(=O)COc2ccc3c(c2)CCC3)n1,-33.8,"18.4 µM [falling, partial curve, poor fit]","29.1 µM [rising, single point]"
COc1ccc(OC)c(NC(=O)CSc2nccn2Cc2ccco2)c1,-10.1,–,–
COCCN(C(=O)c1cccc(N2C(=O)CCC2=O)c1)c1nc(-c2ccc([N+](=O)[O-])cc2)cs1,–,"1.03 µM [rising, partial curve, poor fit]",–
N#Cc1ccc(OCC(=O)Nc2ccc3[nH]c(=O)[nH]c3c2)cc1,-17.1,"0.517 µM [falling, full curve]","0.461 µM [falling, full curve, poor fit]"
CN=C1c2c(-c3ccccc3)c3cc(OC)ccc3n2CCN1C,-1.29,–,"0.00651 µM [falling, full curve, poor fit]"
COc1ccc(C(=O)NCCc2ccccc2F)cc1OC1CCN(C(C)=O)CC1,25.2,–,"7.31 µM [rising, partial curve, poor fit]"
Cc1cc2c([nH]c3ccccc32)c(C)n1,-6.56,–,–

# Fetched one by one from the list above:
Structure (SMILES),cell number change [%],AC50 [1],AC50 [2]
COc1ccc(C(=O)NCCc2ccccc2F)cc1OC1CCN(C(C)=O)CC1,25.2,–,"7.31 µM [rising, partial curve, poor fit]"
COCCn1c(=NC(=O)c2ccc(S(=O)(=O)N3CCCc4ccccc43)cc2)sc2cc(S(C)(=O)=O)ccc21,4.74,–,"3.26 µM [rising, single point]"
Cc1cc(C(=O)Nc2ccc(Br)cc2)c2ccccc2n1,-2.19,–,"0.116 µM [rising, full curve, poor fit]"

# Reference: PubChem BioAssay AID2685 (National Center for Advancing Translational Sciences (NCATS), 2010)
